# From the supplement of paper PMC12873370
# Where “and” joins values, the source holds several entries; their conditions need not be identical. Equal entries are not always repeated. The list shows a part of the results. Many values rest on one well or one pass, so single values are uncertain.
# Tests used:
# [1] = test system: MEPP (mouse ovarian epithelium Trp53/Pten KO); experiment: cell viability relative to untreated (fraction); higher = less growth inhibition; details: 5 µM; 3 days
# [2] = test system: PREPP (mouse prostate epithelium Trp53/Pten KO); experiment: as above; details: 5 µM; 3 days
smiles,measurement,setting,value
Cc1c(C)c2c(c(C)c1O)CC[C@@](C)(CCC[C@H](C)CCC[C@H](C)CCCC(C)C)O2,cell viability,[1],1.37
same,cell viability,[2],0.993
Clc1ccc(COC(Cn2ccnc2)c2ccc(Cl)cc2Cl)cc1 (stereo not given),cell viability,[1],0.822
same,cell viability,[2],0.755
O=C1C=C(O)C(=O)c2ccccc21,cell viability,[1],0.992
same,cell viability,[2],0.764
O=C(/C=C/C=C/c1ccc2c(c1)OCO2)N1CCCCC1,cell viability,[1],0.971
same,cell viability,[2],0.978
COc1cc(C)c(/C=C/C(C)=C/C=C/C(C)=C/C(=O)O)c(C)c1C,cell viability,[1],1.11
same,cell viability,[2],1.06
CCCCCCCCCCCCCCCC(=O)O,cell viability,[1],0.913
same,cell viability,[2],0.963
O=C(CCc1ccc(O)cc1)c1c(O)cc(O)cc1O[C@@H]1OC(CO)[C@@H](O)[C@@H](O)C1O (stereo not given in full),cell viability,[1],1
same,cell viability,[2],1.41
Oc1ccc2c(c1)OCO2,cell viability,[1],1.07
same,cell viability,[2],0.902
CCCCCCCCCCCCCCC(=O)O,cell viability,[1],1.03
same,cell viability,[2],0.846
O=c1ccc2cc3ccoc3cc2o1,cell viability,[1],1.81
same,cell viability,[2],0.937
Cc1ncc([N+](=O)[O-])n1CC(O)CCl (stereo not given),cell viability,[1],1.16
same,cell viability,[2],0.956
CCC[C@@H]1C[C@@H](C(=O)N[C@@H]([C@H]2O[C@H](SC)[C@H](OP(=O)(O)O)[C@@H](O)[C@H]2O)[C@H](C)Cl)N(C)C1,cell viability,[1],1.11
same,cell viability,[2],1.17
OCc1ccccc1O[C@@H]1O[C@H](CO)[C@@H](O)[C@H](O)[C@H]1O,cell viability,[1],0.862
same,cell viability,[2],1.17
CC(N)C12CC3CC(CC(C3)C1)C2 (stereo not given),cell viability,[1],0.915
same,cell viability,[2],0.922
COc1cc(C=O)ccc1O,cell viability,[1],0.801
same,cell viability,[2],0.944
FC(F)(F)Oc1ccc(-c2ccc3nnc(C(F)(F)F)n3c2)cc1,cell viability,[1],1.02
same,cell viability,[2],0.933
COc1ccc2[nH]cc(CCNC(C)=O)c2c1,cell viability,[1],1.09
same,cell viability,[2],0.866
COc1cnc(NS(=O)(=O)c2ccc(N)cc2)nc1,cell viability,[1],0.819
same,cell viability,[2],0.901
CCCCC(=O)O[C@H]1CC[C@H]2[C@@H]3CCc4cc(O)ccc4[C@H]3CC[C@]12C,cell viability,[1],1.01
same,cell viability,[2],0.915
CC[C@]1(O)C[C@H]2CN(CCc3c([nH]c4ccccc34)[C@@](C(=O)OC)(c3cc4c(cc3OC)N(C=O)[C@H]3[C@@](O)(C(=O)OC)[C@H](OC(C)=O)[C@]5(CC)C=CCN6CC[C@]43[C@@H]65)C2)C1,cell viability,[1],0.581
same,cell viability,[2],0.599
O=C(O)C1CCCCN1 (stereo not given),cell viability,[1],1.07 and 0.996
same,cell viability,[2],0.868 and 0.899
COc1cc(C(=O)O)ccc1O,cell viability,[1],0.846
same,cell viability,[2],1.04
CCCCCCCCCCCCCCCC(=O)OCC,cell viability,[1],1.08
same,cell viability,[2],0.889
CC(=O)C(C)O (stereo not given),cell viability,[1],1.09
same,cell viability,[2],0.881
COc1ccc2c3c1O[C@H]1C[C@@H](O)C=C[C@@]31CCN(C)C2,cell viability,[1],1.2 and 1.14
same,cell viability,[2],0.742 and 0.86
c1cnc2cc3c(cc2n1)[C@@H]1CNC[C@H]3C1,cell viability,[1],0.999
same,cell viability,[2],0.953
O=C1O[C@H](CO)[C@@H](O)[C@H](O)[C@H]1O,cell viability,[1],0.876
same,cell viability,[2],0.966
CC1(C)[C@H](C(=O)O)N2C(=O)C[C@H]2S1(=O)=O,cell viability,[1],0.964
same,cell viability,[2],0.896
CCCCOC(=O)c1ccc(N)cc1,cell viability,[1],0.856
same,cell viability,[2],0.962
C=C[C@]1(C)C[C@@H](OC(=O)CSC(C)(C)CNC(=O)[C@H](N)C(C)C)[C@]2(C)[C@H](C)CC[C@]3(CCC(=O)[C@H]32)[C@@H](C)[C@@H]1O,cell viability,[1],1.23
same,cell viability,[2],1.08
O=C(N[C@H](CO)[C@H](O)c1ccc([N+](=O)[O-])cc1)C(Cl)Cl,cell viability,[1],1.15
same,cell viability,[2],0.932
COc1cc(C2Oc3cc([C@H]4Oc5cc(O)cc(O)c5C(=O)[C@@H]4O)ccc3OC2CO)ccc1O (stereo not given in full),cell viability,[1],1.07
same,cell viability,[2],1.07
NCCS,cell viability,[1],0.925 and 0.815
same,cell viability,[2],0.854 and 0.929
O[C@@H]1[C@@H](O)[C@@H]2OC[C@@H](O2)[C@H]1O,cell viability,[1],1.41
same,cell viability,[2],1.03
CCC(C)n1ncn(-c2ccc(N3CCN(c4ccc(OCC5COC(Cn6cncn6)(c6ccc(Cl)cc6Cl)O5)cc4)CC3)cc2)c1=O (stereo not given),cell viability,[1],0.684
same,cell viability,[2],0.593
C=CC(C)(C)c1cc(/C=C/C(=O)c2ccc(O)cc2)c(OC)cc1O,cell viability,[1],1.13
same,cell viability,[2],1
COc1cc2c(=O)c(-c3ccc(O)cc3)coc2cc1O[C@@H]1O[C@H](CO)[C@@H](O)[C@H](O)[C@H]1O,cell viability,[1],0.959
same,cell viability,[2],1.14
CC(C)=CCC[C@](C)(O[C@@H]1O[C@H](CO[C@@H]2OC[C@H](O)[C@H](O)[C@H]2O)[C@@H](O)[C@H](O)[C@H]1O)[C@H]1CC[C@]2(C)[C@@H]1[C@H](O)C[C@@H]1[C@@]3(C)CC[C@H](O[C@@H]4O[C@H](CO)[C@@H](O)[C@H](O)[C@H]4O[C@@H]4O[C@H](CO)[C@@H](O)[C@H](O)[C@H]4O)C(C)(C)[C@@H]3CC[C@]12C,cell viability,[1],0.975
same,cell viability,[2],0.99
COc1ccc2cc3[n+](cc2c1OC)CCc1cc2c(cc1-3)OCO2,cell viability,[1],1.15 and 0.76 and 0.734
same,cell viability,[2],1.09 and 1.11 and 1.18
C/C=C(\C)C(=O)OC1c2c(ccc3ccc(=O)oc23)OC(C)(C)C1OC(=O)/C(C)=C/C (stereo not given),cell viability,[1],1.01
same,cell viability,[2],1.23
c1ccc2[nH]ccc2c1,cell viability,[1],0.901
same,cell viability,[2],1.05
C[C@H]1O[C@H](O[C@H]2[C@H](O)[C@@H](O)[C@@H](O[C@H]3[C@H](O)[C@@H](O)C(O)O[C@@H]3CO)O[C@@H]2CO)[C@H](O)[C@@H](O)[C@@H]1N[C@H]1C=C(CO)[C@@H](O)[C@H](O)[C@H]1O (stereo not given in full),cell viability,[1],1.09
same,cell viability,[2],0.856
OCC(O)CO,cell viability,[1],0.999
same,cell viability,[2],0.994
CCOC(=O)c1c(C)n(C)c2ccc(O)cc12,cell viability,[1],1.01
same,cell viability,[2],0.89
O=c1ccn([C@@H]2O[C@H](CO)[C@@H](O)[C@H]2O)c(=O)[nH]1,cell viability,[1],1.16
same,cell viability,[2],0.99
Cc1ccc(C(C)C)cc1O,cell viability,[1],1.15
same,cell viability,[2],0.928
OC[C@H]1O[C@@H](O[C@H]2[C@H](O)[C@@H](O)[C@H](O)O[C@@H]2CO)[C@H](O)[C@@H](O)[C@@H]1O,cell viability,[1],1.13
same,cell viability,[2],0.933
Cc1ncc(CO)c(C=O)c1O,cell viability,[1],0.763
same,cell viability,[2],0.992
C[C@]12CC[C@@H]3c4ccc(OS(=O)(=O)O)cc4CC[C@H]3[C@@H]1CCC2=O,cell viability,[1],0.842
same,cell viability,[2],0.845
C=CCNC1=C2C[C@@H](C)C[C@H](OC)[C@H](O)[C@@H](C)/C=C(\C)[C@H](OC(N)=O)[C@@H](OC)/C=C\C=C(/C)C(=O)NC(=CC1=O)C2=O,cell viability,[1],0.945
same,cell viability,[2],0.444
CN(C)c1ncnc2c1ncn2[C@@H]1O[C@H](CO)[C@@H](N)[C@H]1O,cell viability,[1],1.04
same,cell viability,[2],0.861
OC[C@H]1NC[C@H](O)[C@@H](O)[C@@H]1O,cell viability,[1],1.45
same,cell viability,[2],0.925
CCCCCCCCCCCCCCCCCCCC(=O)O,cell viability,[1],1.09
same,cell viability,[2],0.722
CC(C)(O)[C@H]1CC[C@@](C)([C@H]2[C@@H](O)C[C@@]3(C)[C@@H]4C[C@H](O[C@@H]5O[C@H](CO)[C@@H](O)[C@H](O)[C@H]5O)[C@H]5C(C)(C)[C@@H](O[C@@H]6OC[C@@H](O)[C@H](O)[C@H]6O)CC[C@@]56C[C@@]46CC[C@]23C)O1,cell viability,[1],0.99
same,cell viability,[2],0.783
O=C(O)CCCCC1CCSS1 (stereo not given),cell viability,[1],1.08 and 1 and 0.982
same,cell viability,[2],1.01 and 0.796 and 0.918
CC12CCC(CC1=O)C2(C)C (stereo not given),cell viability,[1],0.982 and 0.91
same,cell viability,[2],1.08 and 0.863
COc1cc(NS(=O)(=O)c2ccc(N)cc2)nc(OC)n1,cell viability,[1],1.05
same,cell viability,[2],0.822
O[C@@H]1[C@@H](O)[C@@H](O)CO[C@H]1O,cell viability,[1],0.851
same,cell viability,[2],1.06
C=CCCCCCCCCC(=O)O,cell viability,[1],0.907
same,cell viability,[2],0.92
O=C(O)C1=C(CSc2nnnn2CS(=O)(=O)O)CS[C@@H]2[C@H](NC(=O)[C@H](O)c3ccccc3)C(=O)N12,cell viability,[1],0.999
same,cell viability,[2],0.628
C=CCc1cc(OC)c(O[C@@H](C)[C@H](O)c2ccc(O)c(OC)c2)c(OC)c1,cell viability,[1],0.966
same,cell viability,[2],0.919
O=C(O)CNC(=O)c1ccccc1,cell viability,[1],0.86
same,cell viability,[2],1.01
Nc1[nH]cnc2ncnc1-2,cell viability,[1],0.925 and 1.12 and 1.05
same,cell viability,[2],1.12 and 1.04 and 1.11
CC(=O)N[C@@H](CS)C(=O)O,cell viability,[1],1.03
same,cell viability,[2],0.852
CC(C)=CCC/C(C)=C/CC/C(C)=C/CO,cell viability,[1],0.862
same,cell viability,[2],0.886
O=c1c(O)c(-c2ccccc2)oc2ccccc12,cell viability,[1],0.938
same,cell viability,[2],0.936
CC(=O)OCc1ccccc1,cell viability,[1],1.06
same,cell viability,[2],0.89
O=C1OC[C@H]2O[C@@H](O)[C@H](O)[C@@H](O)[C@@H]2OC(=O)c2cc(O)c(O)c(O)c2-c2c(O)c(O)c3oc(=O)c4c(c(O)c(O)c5oc(=O)c2c3c54)-c2c1cc(O)c(O)c2O,cell viability,[1],0.963
same,cell viability,[2],0.979
NC(N)=O,cell viability,[1],1.22
same,cell viability,[2],0.98
O=C(O)/C=C/c1ccc(O)cc1,cell viability,[1],0.868
same,cell viability,[2],1.36
CCCCCC=CCC=CCCCCCCCC(=O)OC(COC(=O)CCCCCCCCCCCCCCC)COP(=O)([O-])OCC[N+](C)(C)C (stereo not given),cell viability,[1],0.879
same,cell viability,[2],0.981
O=C1Nc2ccccc2/C1=C1/Nc2ccccc2C1=O,cell viability,[1],0.801
same,cell viability,[2],0.853
O=Cc1cccc(O)c1,cell viability,[1],1.45
same,cell viability,[2],0.971
C/C=C1\[C@H]2C=C(C)C[C@]1(N)c1ccc(=O)[nH]c1C2,cell viability,[1],1.2
same,cell viability,[2],0.88
COc1cccc(-c2cc(=O)c3ccccc3o2)c1N,cell viability,[1],1.14
same,cell viability,[2],0.644
N[C@@H](CCC(=O)N[C@@H](CS)C(=O)NCC(=O)O)C(=O)O,cell viability,[1],0.938
same,cell viability,[2],0.964
CC(C)CC(=O)NCC(=O)O,cell viability,[1],1.06
same,cell viability,[2],0.862
O=C1c2c(O)cc(O)cc2O[C@H](c2cc(O)c(O)c(O)c2)[C@H]1O,cell viability,[1],0.857
same,cell viability,[2],1.3
COc1nc2ccc(Br)cc2cc1[C@@H](c1ccccc1)[C@@](O)(CCN(C)C)c1cccc2ccccc12,cell viability,[1],0.78
same,cell viability,[2],0.863
CCCCCCCCCCC(=O)O,cell viability,[1],0.967
same,cell viability,[2],0.98
O=C(O)C(O)CO (stereo not given),cell viability,[1],1.01
same,cell viability,[2],0.968
CC(=O)N[C@@H](CC(C)C)C(=O)O,cell viability,[1],1.28
same,cell viability,[2],0.959
CC(=O)CCc1ccc(O)cc1,cell viability,[1],1.01
same,cell viability,[2],1.04
Nc1nc2c(ncn2COCCO)c(=O)[nH]1,cell viability,[1],1.03
same,cell viability,[2],0.984
NCCCC(N)C(=O)O (stereo not given),cell viability,[1],1.18
same,cell viability,[2],0.937
CC[C@@H](N)C(=O)O,cell viability,[1],0.99
same,cell viability,[2],0.838
Nc1nccs1,cell viability,[1],1.14
same,cell viability,[2],0.835
O=C(O)c1ccc(O)cc1,cell viability,[1],1.07
same,cell viability,[2],0.925
CO[C@@H]1[C@@H](OC(N)=O)[C@@H](O)[C@H](Oc2ccc3c(O)c(NC(=O)c4ccc(O)c(CC=C(C)C)c4)c(=O)oc3c2C)OC1(C)C,cell viability,[1],0.855
same,cell viability,[2],0.722
O=C(O)c1cc(O)c2c(c1)[C@H]([C@H]1c3cc(C(=O)O)cc(O)c3C(=O)c3c(O[C@@H]4O[C@H](CO)[C@@H](O)[C@H](O)[C@H]4O)cccc31)c1cccc(O[C@@H]3O[C@H](CO)[C@@H](O)[C@H](O)[C@H]3O)c1C2=O,cell viability,[1],1.07
same,cell viability,[2],1.1

# 2 entries picked at random from the list so far, as already listed:
smiles,measurement,setting,value
COc1cc(NS(=O)(=O)c2ccc(N)cc2)nc(OC)n1,cell viability,[1],1.05
O=C(CCc1ccc(O)cc1)c1c(O)cc(O)cc1O[C@@H]1OC(CO)[C@@H](O)[C@@H](O)C1O (stereo not given in full),cell viability,[1],1

# At a glance, part of the list above:
smiles,measurement,setting,value
CCCCOC(=O)c1ccc(N)cc1,cell viability,[2],0.962
C=C[C@]1(C)C[C@@H](OC(=O)CSC(C)(C)CNC(=O)[C@H](N)C(C)C)[C@]2(C)[C@H](C)CC[C@]3(CCC(=O)[C@H]32)[C@@H](C)[C@@H]1O,cell viability,[1],1.23

# Part of the list above in a different format.
smiles | measurement | setting | value
CCCCCCCCCCCCCCC(=O)O | cell viability | [2] | 0.846
O=c1ccc2cc3ccoc3cc2o1 | cell viability | [1] | 1.81
